Test results reported in article PMC10669474, “An Exploration of Small Molecules That Bind Human Single-Stranded DNA Binding Protein 1” (Biology, 2023).

Test: TruHits counter assay (AlphaLISA interference)
Details: 0.125 to 400 μM

## CCOc1ccc2cc(C3CC(c4ccc(I)cc4)=NN3C(=O)CCCC(=O)O)c(Cl)nc2c1 (stereo not drawn) [TDRL-551]
  interference with the AlphaLISA assay: did not

## COc1ccc2cc([C@H]3CC(c4cn(C)c5cc(OC)ccc45)=NN3C(=O)CCCC(=O)NCC(=O)N3CCOCC3)ccc2c1 [DAZLN-56]
  concentration above which compound interfered with the AlphaLISA assay: above 10 μM

## COc1ccc2cc([C@H]3CC(c4cn(C)c5cc(OC)ccc45)=NN3C(=O)CCCC(=O)O)ccc2c1 [DAZLN-55]
  concentration above which compound interfered with the AlphaLISA assay: above 10 μM
